These results are taken from patent publication US20220281951A1 (ACCELERON PHARMA, published 2022).

The target of this experiment is T1, GDF-11 (UniProt O95390 299-407).
T1 sequence (looked up): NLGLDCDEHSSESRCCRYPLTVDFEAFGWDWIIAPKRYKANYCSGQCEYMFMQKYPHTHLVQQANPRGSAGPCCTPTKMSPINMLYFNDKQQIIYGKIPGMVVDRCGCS
As to the kind of experiment: BiaCore; ligand coupled to the device, receptor-Fc flowed (reproduced from WO2006/012627). A general note: SPR reads the build-up and loss of mass on a sensor chip optically.

Numbering of substitutions follows the chain as printed. Names may count otherwise. These are yes or no findings as the source states them, for the method shown. Some results given as binding are weak or reduced against the parent protein; the word gives no strength. Where a sequence is shown, tags or fusion partners need not be part of it.

B1: Soluble ActRIIB-Fc WT (64A) (Fc fusion, UniProt Q13705 19-119, looked up, not shown: a dimerising Fc or GST)
chain: SGRGEAETRECIYYNANWELERTNQSGLERCEGEQDKRLHCYASWANSSGTIELVKKGCWLDDFNCYDRQECVATEENPQVYFCCCEGNFCNERFTHLPEA
For B1, the binding entry is “binds”.

B2: Soluble ActRIIB-Fc F82A (Fc fusion, UniProt Q13705 19-119, looked up, not shown: a dimerising Fc or GST)
chain: B1 chain with F64A
As for B2, the binding result is “binds”.

B3: Soluble ActRIIB-Fc R40A (Fc fusion, UniProt Q13705 19-119, looked up, not shown: a dimerising Fc or GST)
chain: B1 chain with R22A
Consider B3, for which the binding result is “binds”.

B4: Soluble ActRIIB-Fc K74A (the 13th table) (Fc fusion, UniProt Q13705 19-119, looked up, not shown: a dimerising Fc or GST)
chain: B1 chain with K56A
Consider B4, for which the binding result is “binds”.
